This passage reports binding results from US12344663.

Sequences of proteins named here, by UniProt entry; tags and fusion partners are left off. A change or cut given only in a name is not applied to a line headed by its entry.
UniProt P01024: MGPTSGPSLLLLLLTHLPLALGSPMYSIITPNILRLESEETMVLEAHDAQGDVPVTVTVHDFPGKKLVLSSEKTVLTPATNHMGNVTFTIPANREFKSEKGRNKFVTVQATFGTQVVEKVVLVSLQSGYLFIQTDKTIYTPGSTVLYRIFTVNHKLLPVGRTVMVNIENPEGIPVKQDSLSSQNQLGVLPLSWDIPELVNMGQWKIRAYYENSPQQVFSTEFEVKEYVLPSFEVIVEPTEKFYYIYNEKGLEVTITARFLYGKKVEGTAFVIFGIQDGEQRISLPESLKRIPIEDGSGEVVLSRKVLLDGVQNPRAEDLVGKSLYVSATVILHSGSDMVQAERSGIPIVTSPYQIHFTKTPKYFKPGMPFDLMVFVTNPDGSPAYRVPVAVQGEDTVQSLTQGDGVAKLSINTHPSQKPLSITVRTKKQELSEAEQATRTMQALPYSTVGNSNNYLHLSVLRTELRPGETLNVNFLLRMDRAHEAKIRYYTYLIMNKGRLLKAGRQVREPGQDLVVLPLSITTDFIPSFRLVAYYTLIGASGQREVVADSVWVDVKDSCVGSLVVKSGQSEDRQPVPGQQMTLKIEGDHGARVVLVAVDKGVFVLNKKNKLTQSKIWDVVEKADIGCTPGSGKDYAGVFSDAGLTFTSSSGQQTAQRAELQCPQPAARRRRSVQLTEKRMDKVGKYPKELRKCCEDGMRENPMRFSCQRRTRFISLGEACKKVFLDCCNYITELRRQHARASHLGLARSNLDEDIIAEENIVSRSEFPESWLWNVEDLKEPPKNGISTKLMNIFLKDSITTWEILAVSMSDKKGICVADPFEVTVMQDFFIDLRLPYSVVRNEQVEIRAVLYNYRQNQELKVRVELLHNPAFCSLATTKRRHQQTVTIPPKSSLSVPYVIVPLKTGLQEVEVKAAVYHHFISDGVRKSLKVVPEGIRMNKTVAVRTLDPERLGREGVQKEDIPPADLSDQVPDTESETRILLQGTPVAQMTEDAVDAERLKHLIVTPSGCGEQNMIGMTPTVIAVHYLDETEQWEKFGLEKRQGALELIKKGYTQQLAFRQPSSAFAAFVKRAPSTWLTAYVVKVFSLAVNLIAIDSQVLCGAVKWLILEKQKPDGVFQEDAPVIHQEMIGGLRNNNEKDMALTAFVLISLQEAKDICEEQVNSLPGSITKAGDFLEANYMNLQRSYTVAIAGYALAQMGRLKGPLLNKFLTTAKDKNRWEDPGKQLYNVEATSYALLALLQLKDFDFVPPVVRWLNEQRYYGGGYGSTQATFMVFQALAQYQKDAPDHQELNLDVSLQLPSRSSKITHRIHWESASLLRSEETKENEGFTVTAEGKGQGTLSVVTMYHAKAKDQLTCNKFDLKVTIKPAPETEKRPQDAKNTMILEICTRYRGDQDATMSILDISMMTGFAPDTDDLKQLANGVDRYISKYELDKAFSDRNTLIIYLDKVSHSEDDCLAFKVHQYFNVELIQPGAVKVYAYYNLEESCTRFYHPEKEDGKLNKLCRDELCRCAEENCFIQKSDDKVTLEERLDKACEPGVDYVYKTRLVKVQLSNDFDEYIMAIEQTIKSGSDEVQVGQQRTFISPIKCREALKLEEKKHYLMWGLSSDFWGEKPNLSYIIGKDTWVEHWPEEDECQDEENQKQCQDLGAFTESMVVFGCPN

Substitutions are numbered along the chain they refer to. No constants are given. Whether binding was seen depends on the method and setting. Some results given as binding are weak or reduced against the parent protein; the word gives no strength.

Sequences and labels used below:
B1: Clone II (scFv)
scFv: MQLVLTQSPSASASLGASVKLTCTLSSAHKTYTIDWYQQQPEKCPRYLMQLKSDGSYTKGSGIPDRFSGSSSGAERYLTISSLQSEDEADYYCGTEGVGGYVFGGGTKLTVLGGGGGSGGGGSGGGGSGGGGSQVQLVESGGGSVQPGRSLRLSCAASGFTFSNYAMNWVRQAPGKGLEWVAIINVGGGTNYADSVKGRFTISRDNSKNTLYLQMNSLRAEDTASYYCARAVGYHHARLDPWGCGTSVTVSS
B2: Clone III (scFv)
scFv: B1 scFv with D54E
B3: Clone I (scFv)
scFv: MQLVLTQSPSASASLGASVKLTCTLSSAHKTYTIDWYQQQPEKCPRYLMQLKSDGSYTKGSGIPDRFSGSSSGAERYLTISSLQSEDEADYYCGTEGVGGYVFGGGTKLTVLGGGGGSGGGGSGGGGSGGGGSQVQLVESGGGSVQPGRSLRLSCAASGFTFSNYAMNWVRQAPGKGLEWVAVISYDGSNKYYADSVKGRFTISRDNSKNTLYLQMNSLRAEDTASYYCARAVGYHHARLDPWGCGTSVTVSS

The target of one experiment is human C3 P314L (human) (UniProt P01024). Put plainly: SPR.
As for B1, the binding entry is “binds”.

In the case of B2, the binding result is on record as “binds”.

For the molecule B3, the binding entry was “binds”.

In another experiment the target is recombinant wild-type human C3 (human) (UniProt P01024). In words: SPR. For orientation: SPR reads the build-up and loss of mass on a sensor chip optically.
In the case of B1, the binding entry was “binds”.

With B2, the binding entry is “binds”.

Regarding B3, the binding result is on record as “binds”.

A further experiment addresses human complement C3 (human) (UniProt P01024). Put plainly: SPR.
For the molecule B1, the binding result is “binds”.

For the molecule B2, the binding entry is listed as “binds”.

Take B3: the binding entry was “binds”.
